# Data as given in US6599501B1, “Immunomodulators” (Steeno Research Group A/S, priority 1994, dated 2003).
# Not every detail of the peptide structures is certain; ends, links or a residue may be inferred.
# Key:
# [1] = test system: chemotactic response of CD4+ T cells towards IL-8; test: Suppression of CD4+ T cell chemotactic response towards rhIL-8; type: cell-based, human; conditions: IT9302 added 30 minutes before; rhIL-8 10 ng/ml; dose-dependent
# [2] = test system: chemotactic response of human monocytes towards MCAF/MCP-1; test: Monocyte chemotaxis towards MCAF/MCP-1; type: cell-based; conditions: 30 minutes preincubation; MCAF/MCP-1 10 ng/ml; dose-dependent
# [3] = test system: IL-1β induced IL-8 production by human peripheral blood mononuclear cells (PBMC); test: IL-1β induced IL-8 production by human peripheral blood mononuclear cells (IL-8 ELISA); type: cell-based
# Protocol: PBMC was purified from heparinized blood of normal human donors. Following gradient centrifugation with-Lymphoprep™ (Nycomed Pharma, Oslo, Norway), the mononuclear cells were diluted to 2×10^6 cells/ml in LPS-free RPMI 1640 medium (Gibco Cat.No. 6187-010) containing 1% sterile filtered heat-inactivated fetal calf serum and penicillin (10,000 IE/ml), streptomycin (10 mg/ml) and gentamycin (2.5 mg/ml). Cells were cultured in 24 wells Nunc Micro Plates (Nunc, Denmark) and in the presence of different concentration of IT9302 (0, 1 μg, 100 ng, 10 ng, 1 ng, 0.1 ng, 0.01 ng/ml) for 24 hours. Following 24 hours of incubation, another dose of IT9302 was added once more, and 1 hour later r-hIL-1β (1 ng/ml) was added to the cell cultures. Supernatants were collected after a total of 48 hours of incubation, and the concentration of the secreted IL-8 was measured by IL-8 ELISA by using an IL-8 ELISA Kit (Dainippon Pharmaceutical Co. Ltd, Osaka, Japan). Briefly, standards and cell supernatants were incubated for one hour and in duplicates at 20° C. on a micro-plate shaker. Then after washing, a second antibody was added for one hour, followed by one hour of incubation with peroxidase-labelled goat anti-rabbit IgG. […] Optical density (OD) was measured in an ELISA reader at 490 nm. IL-8 concentration was calculated by a calibration curve of absorbance of unknown vs concentrations of IL-8 standards. […]
# [4] = test system: LPS induced leukopenia; test: LPS induced shock and leukopenia in swine; type: in vivo; conditions: IT9302 0.1 mg/kg i.v. 30 minutes before LPS 2 μg/kg i.v., preliminary experiment
# [5] = test system: human mixed leukocyte reaction; test: Human mixed leukocyte reaction (MLR), TNF-α by Western blotting; type: cell-based; conditions: allogeneic leukocytes, 4 days
# [6] = test system: chemotactic response of CD8+ T cells to rhIL-10; test: Desensitization of CD8+ T cell migration towards rhIL-10; type: cell-based, human; conditions: IT9302 added 30 minutes before; rhIL-10 10 ng/ml
# [7] = test system: CD8+ human T lymphocytes; test: T cell chemotaxis assay, IT9302 as chemoattractant on CD8+ T cells; type: cell-based
# [8] = test system: IRAP production by human monocytes; test: Production of interleukin-1 receptor antagonist protein (IRAP) by human monocytes (IRAP ELISA); type: cell-based
# Protocol: PBMC was purified as described above. PBMC was cultured in RMPI 1640, 10% sterile heat-inactivated fetal calf serum (including penicillin 10,000 IE/ml, streptomycin 10 mg/ml, gentamycin 2.5 mg/ml) and the cell concentration was 5×10^6 cells/ml. The monocytes were then purified by standard plastic adherence technique. Monocytes were then cultured in RPMI 1640 with 2% FCS (2.5×10^6 cells/ml) and with different dilutions of rhIL-10 or IT9302. The cells were stimulated for 24 hours and the supernatants were collected for IRAP determination. IRAP ELISA was carried out by using Human IL-1ra Quantikin Immunoassay Kit from R&D Systems Europe Ltd. (Cat.No. DRA 00, Abingdon, Oxon, UK).
# The test was performed as described in “Determination of IRAP concentration”.
# [9] = test system: spontaneous IL-8 production by human monocytes; test: Spontaneous IL-8 production by purified cultured human monocytes (IL-8 ELISA); type: cell-based; conditions: 0.1 ng/ml of IT9302; monocytes 3.0×10^6 cells/ml, 40 hours
# [10] = test system: IL-4 production by cultured normal human CD4+ T cells; test: IL-4 production by CD4+ T lymphocytes (ECL-Western blotting); type: cell-based; conditions: 10 ng/ml, 3 days, cytosolic fractions
# Protocol: CD4+ T lymphocytes were purified from heparinized normal human blood. Following Lymphoprep™ (Nycomed Pharma, Oslo, Norway) gradient centrifugation, the mononuclear cells were further sorted at 4° C. using Dynabeads (Dynal AS, Norway) coated with monoclonal anti-CD4 antibodies. The beads were detached by adding polyclonal anti-mouse antibody (Dynal AS, Norway). The purity of the positively selected cells were higher than 99% as judged by FACS analysis. […]
# Cells or freeze-dried cell culture supernatants were used for IL-4 protein content determination. […] The blots were then incubated with a polyclonal goat anti-human IL-4 antibody (R&D Systems, UK) followed by a horseradish peroxidase-labelled secondary antibody (Cat.no. RPN 2106 ECL, Amersham, UK), and the immunostaining was detected by exposing a film (Kodak X-OMAT-S, USA) for 90 seconds.
# Thus, CD4+ T cells, purified as described in “Methods for T cell chemotaxis”, and cultured as described in the section “Determination of IL-4 production by CD4+ T lymphocytes”, were stimulated for 3 days with IT9302 (10 ng/ml) or IL-10 (100 ng/ml). Cytosolic fractions were collected and analyzed for their IL-4 content using Western blotting (FIG. 11) and a goat anti-human IL-4 polyclonal antibody.
# [11] = test system: CD4+ T cells; test: T cell chemotaxis assay, IT9302 as chemoattractant on CD4+ T cells; type: cell-based, human; conditions: data not shown
# [12] = test system: class II MHC molecule expression on human monocytes; test: Class II MHC antigen expression on monocytes (rosetting with HLA class II Dynabeads); type: cell-based; conditions: for Number of rosetting monocytes: 40 hours
# Protocol: PBMC was purified as described above and monocytes isolated by plastic adherence technique. Monocytes were then cultured in RPMI 1640 with 2% FCS including penicillin 10,000 IE/ml, streptomycin 10 mg/ml, gentamycin 2.5 mg/ml at a cell concentration of 3×10^6/ml. Cells were stimulated for 40 hours in microwells (Nunc, Denmark) with 100 ng/ml rhIL-10, or IT9302 1 μg/ml, 100 ng/ml, 10 ng/ml. At the end of stimulation, the supernatants were removed and the cells were detached from the plastic by freezing at −20° C. for 20 minutes. The cells were collected in 1 ml of cold HBSS with 1% FCS and sorted at 20° C. by using 50 μl/ml Dynabeads M 450 coated with monoclonal antibody for HLA class II β chain (Cat. No. 210.03). After 20 minutes of incubation, the cells were washed 3 times with cold HBSS with 1% FCS and collected on a magnetic separation device. The cells were diluted in the above buffer and stained with methylene blue, and the resetting cells (cells carrying Dynabeads with HLA class II mAb) were counted.
substance,measurement,setting,value
"H-AYMTMKIRN-OH [IT9302, NH2-Ala-Tyr-Met-Thr-Met-Lys-Ile-Arg-Asn-COOH]",response of CD4+ T cells towards IL-8,[1],inhibits the response
same,chemotactic response of monocytes towards MCAF/MCP-1,[2],inhibits the chemotactic response
same,time of addition before IL-1 needed to counteract IL-1-induced IL-8 production,[3]; IT9302 added to the cultures before adding IL-1,at least 16 hours
same,inhibition of IL-1β induced production of IL-8,"[3]; r-hIL-1β 1 ng/ml, 48 hours total incubation","in a dose dependent manner, inhibited"
same,effect on LPS induced leukopenia (total leukocyte count),[4],prevented leukopenia
same,effect on the MLR,[5],does not significantly reduce the MLR
same,production of TNF-α during the MLR,[5]; cytosolic fractions,significant reduction
same,responsiveness of CD8+ T cells towards rhIL-10 after preincubation,[6],suppressed responsiveness
same,potency in CD8+ chemotaxis compared with rhIL-10 (ref. 14),[7],comparable with that of rhIL-10
same,chemotactic migration of CD8+ T lymphocytes,"[7]; in vitro, serial dilutions in lower chamber",induced the chemotactic migration
same,IT9302 concentration above which IRAP production drastically increased,[8]; 24 hours,above 10 ng/ml
same,IRAP level reached,[8]; IT9302 concentrations exceeding 10 ng/ml,approximately 700 ng/ml
same,potency for induction of IRAP compared with rhIL-10 (molar basis),[8]; at lower concentrations,comparable and approximately equal
same,induction of IRAP production,[8]; monocytes stimulated 24 hours,dose-dependently induced
same,IL-8 production relative to the spontaneous production in vitro,[9],35 % of the spontaneous production
same,production of IL-4 by CD4+ T cells,[10],induce the production of IL-4
same,chemotactic effect on CD4+ T cells,[11],no effect
same,inhibition of class II MHC expression,[12]; 40 hours stimulation,does not
same,Number of rosetting monocytes,[12]; stimulation 10 ng/ml,11.2 ± 3.2 × 10^4
same,Number of rosetting monocytes,[12]; stimulation 100 ng/ml,14.4 ± 2.4 × 10^4
same,Number of rosetting monocytes,[12]; stimulation 1 μg/ml,11.0 ± 3.0 × 10^4
